# Primary screen of a compound library

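Whole-parasite assay of Trypanosoma brucei over 72 hours; the read-out is not stated. Compounds at 30 µM. The record gives no direction; compounds that gave an IC50 in retests scored well above the rest, so higher reads as stronger inhibition. Values scatter widely below zero; nearly all retest evidence comes from the higher of the two concentrations used. Of about 64,000 compounds tested this way, about 940 (1.5%) reached 50% or more in at least one test.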

Each number is a percent effect as filed. The record does not define 0% and 100%; most values in the screen are far below 50% and negative numbers occur (in some assays of this library far below -100). Compounds were drawn at random from those tested, without regard to their results.

{"structure": "CO[C@H]1CN(Cc2nc3ccccc3n2C)CC[C@@]12CCCO2", "Percent Effect": 5.707}
{"structure": "O=C(c1cnc(-c2ccccc2)s1)N1CCC2(CC1)OCCO2", "Percent Effect": -47.99}
{"structure": "[H][C@@]12COC[C@]1(COC)CN(C(=O)COC)C2", "Percent Effect": -31.97}
{"structure": "c1cc(C2CCCN2Cc2nnnn2C2CC2)cs1", "stereo": "stereo not given", "Percent Effect": 31.1}
{"structure": "[H][C@]12CC[C@@]3(N=C(CC)N(CC(C)C)C3=O)[C@@]1([H])CN(CC(=O)N(C)C)C2", "Percent Effect": 8.175}
{"structure": "Fc1ccc(COCC2CCN(Cc3ccccn3)CC2)cc1.O=C(O)C(=O)O", "Percent Effect": -9.064}
{"structure": "CN1CCC(N(C)C[C@H]2CC[C@@H](Cc3cccc(CO)c3)O2)CC1", "Percent Effect": -39.81}
{"structure": "Cc1cc(NC2CCc3ncnn3C2)n2ncnc2n1", "stereo": "stereo not given", "Percent Effect": -36.85}
{"structure": "Oc1cc(CN2CCCCC2c2cccnc2)nc2c(F)cccc12", "stereo": "stereo not given", "Percent Effect": -52.63}
{"structure": "NC(=O)NC1CCN(Cc2ccc(Br)c(F)c2)CC1", "Percent Effect": -62.98}
{"structure": "Cc1sc2c(C3CCCN(S(C)(=O)=O)C3)nc(C)n2c1C", "stereo": "stereo not given", "Percent Effect": 73.25}
{"structure": "Cc1noc(C)c1S(=O)(=O)N1CCC(Oc2cnccn2)CC1", "Percent Effect": -28.15}
{"structure": "Cc1cccnc1N1CC2(CCN(Cc3cccnc3)C2)C1.O=C(O)C(F)(F)F.O=C(O)C(F)(F)F.O=C(O)C(F)(F)F", "Percent Effect": -8.836}
{"structure": "CC(C)n1c(=O)c2ccccc2n(CCN(C)C)c1=O.Cl", "Percent Effect": -30.17}
{"structure": "Cc1ccc(CN2CCC3(CC(C(=O)NC4CCC4)=NO3)C2)o1", "stereo": "stereo not given", "Percent Effect": 21.39}
{"structure": "CCCc1noc(CS(=O)(=O)c2cccc(OC)c2)n1", "Percent Effect": 58.74}
{"structure": "COCC1CN(C(=O)CC2Cc3ccccc3C2)Cc2c1cnn2C", "stereo": "stereo not given", "Percent Effect": -21.09}
{"structure": "Cc1ccc2[nH]c(=O)c(CNCCCN3CCOCC3)cc2c1", "Percent Effect": 7.675}
{"structure": "CC(=O)N1CCN(C(=O)NC(C)Cn2ccnc2)CC1", "stereo": "stereo not given", "Percent Effect": -10.37}
{"structure": "O=C(NCCc1coc(-c2ccc(F)cc2)n1)NC1CC1", "Percent Effect": 99.45}
{"structure": "Cc1cccnc1CC(C)Nc1ncc(C)c(N(C)C)n1", "stereo": "stereo not given", "Percent Effect": -8.966}
{"structure": "CCc1ccc(CN2CCN(c3cccc(OC)c3)C(=O)C2)nc1", "Percent Effect": -2.586}
{"structure": "O=C(NCCNc1ncccn1)N1CCN(Cc2cccnc2)CC1", "Percent Effect": 3.6}
{"structure": "CN(CCc1cnn(C)c1)C(=O)Cn1c(=O)[nH]c2ccccc21", "Percent Effect": -9.195}
{"structure": "O=C(c1ccc(Sc2ccccn2)cc1)N1CCCSCC1", "Percent Effect": -9.396}
{"structure": "Cc1cc(-n2cncn2)ccc1C(=O)N(CC(F)(F)F)C(C)C", "Percent Effect": -27.99}
{"structure": "Cc1cccc2c(=O)n(C(C)Cc3cccnc3)cnc12", "stereo": "stereo not given", "Percent Effect": -2.697}
{"structure": "O=C(c1ccc[nH]1)N1CCOCC12CCCC2", "Percent Effect": -40.67}
{"structure": "CC(c1ccc2c(c1)OCCO2)N(C)C(=O)c1ccnnc1", "stereo": "stereo not given", "Percent Effect": -13.89}
{"structure": "CC(C)NC(=O)NC[C@H]1OC[C@@H](NCc2ccncc2)[C@@H]1O", "Percent Effect": 23.98}
{"structure": "CSCC[C@H](N)C(=O)N1CC(Oc2ccccc2C)C1", "Percent Effect": -34.99}
{"structure": "COc1ccc(-c2cc(C3CC3)c(C#N)c(N)n2)cc1F", "Percent Effect": 93.34}
{"structure": "O=C(O)C(F)(F)F.[H][C@@]12CN(Cc3ccc(F)cc3)C[C@]1([H])C(=O)N(c1ccsc1)C2", "Percent Effect": 14.65}
{"structure": "CC(C)(C)OC(=O)N1CCC(C(=O)NC2CCS(=O)(=O)C2)CC1", "stereo": "stereo not given", "Percent Effect": -2.388}
{"structure": "CC(C)NC(=O)N1CCCC2(CCCCN2)C1", "stereo": "stereo not given", "Percent Effect": -9.327}
{"structure": "CC(C)CS(=O)(=O)N1CCC2(CC1)CCn1c(-c3cnn(C)c3)cnc12", "Percent Effect": -11.43}
{"structure": "CC(=O)N1CCC(C)(c2cc(C(=O)NCC3CC3)nc(C)n2)CC1", "Percent Effect": 12.05}
{"structure": "CC(C)=CCN1CC2(CCN(Cc3ncc[nH]3)CC2)CC1=O", "Percent Effect": -58.46}
{"structure": "O=C(NCCn1ccnc1)c1csc(Br)c1", "Percent Effect": 6.509}
{"structure": "Cc1nc(C)c(CC(=O)N2CCC(Oc3ccccc3)CC2)c(=O)[nH]1", "Percent Effect": -63.73}
{"structure": "CCC1CCCCN1C(=O)Cn1cnc(C#N)n1", "stereo": "stereo not given", "Percent Effect": -8.833}
{"structure": "CC(C)c1ccc(OCCNC(=O)c2ccoc2)cc1", "Percent Effect": -12.66}
{"structure": "CSc1nnc(CNC(=O)Nc2ccccc2F)n1C", "Percent Effect": 5.386}
{"structure": "COCc1ccc(C(=O)N2CCN(CC(C)O)CC2)cc1", "stereo": "stereo not given", "Percent Effect": -15.66}
{"structure": "c1nc(NCc2cc3n(n2)CCN(C2CCCCC2)C3)c2nc[nH]c2n1", "Percent Effect": 14.21}
{"structure": "Cc1cc2c(c(=O)n1CCC(=O)O)C=CC(C)(C)O2", "Percent Effect": -4.366}
{"structure": "CN1CCN(C(=O)c2n[nH]c3c2CN(Cc2nccs2)CC3)CC1", "Percent Effect": -200.7}
{"structure": "Cc1nc(-c2ccccc2)nc2c1CCN(Cc1nccn1C)CC2", "Percent Effect": -3.392}
{"structure": "CN(C)C(=O)N1CCn2nc(CNC(=O)CCC(F)(F)F)cc2C1", "Percent Effect": -10.45}
{"structure": "NC(=O)C(Nc1cccc(CO)c1)c1ccc(Br)cc1", "stereo": "stereo not given", "Percent Effect": -50.26}
{"structure": "NC(=O)C(NC(=O)Cc1cnn(-c2ccccc2)n1)c1ccccc1", "stereo": "stereo not given", "Percent Effect": -42.99}
{"structure": "COCCCNC(=O)C1CCN(CC2(O)CCC(C)CC2)CC1", "stereo": "stereo not given", "Percent Effect": -15.2}
{"structure": "CC(C)CCN(C)Cc1ccccc1-c1nc(C(C)C)cc(=O)[nH]1", "Percent Effect": 28.78}
{"structure": "CCN1CCc2c(cccc2NC(=O)CN(C)C2CCSC2)C1", "stereo": "stereo not given", "Percent Effect": -20.21}

Repeated from the top, 6 entries:

{"structure": "CO[C@H]1CN(Cc2nc3ccccc3n2C)CC[C@@]12CCCO2", "Percent Effect": 5.707}
{"structure": "O=C(c1cnc(-c2ccccc2)s1)N1CCC2(CC1)OCCO2", "Percent Effect": -47.99}
{"structure": "[H][C@@]12COC[C@]1(COC)CN(C(=O)COC)C2", "Percent Effect": -31.97}
{"structure": "c1cc(C2CCCN2Cc2nnnn2C2CC2)cs1", "stereo": "stereo not given", "Percent Effect": 31.1}
{"structure": "[H][C@]12CC[C@@]3(N=C(CC)N(CC(C)C)C3=O)[C@@]1([H])CN(CC(=O)N(C)C)C2", "Percent Effect": 8.175}
{"structure": "Fc1ccc(COCC2CCN(Cc3ccccn3)CC2)cc1.O=C(O)C(=O)O", "Percent Effect": -9.064}

From ChEMBL document CHEMBL3988442, “University of Dundee, Small-Polar-MMV Screening Library” (2021).